{
  "source": "PubChem BioAssay AID1347423",
  "about": "(Functional Genomics Laboratory (NCATS/FGL), 2020)",
  "note": "Out of some 52,000 sequences screened, about 210 (0.4%) were called active.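 Rule for the calls: active = gene whose silencing raises cell survival under the drug, median off-target-corrected z-score across its silencing RNAs 2 or more; inactive = the rest.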 The list shows a part of the results.",
  "data": [
    {"test": "Resistance to Poly (ADP-Ribose) Polymerase inhibitor: Gene Identification via Genome-wide siRNA Screen", "conditions": "mouse BRCA2 R2336H ES cells, olaparib, CellTiter-Glo viability; hits give high values", "in_short": "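Genome-wide siRNA screen (3 siRNAs/gene, 20 nM) in mouse ES cells carrying hypomorphic BRCA2 R2336H; olaparib 500 nM added 48 h post-transfection, CellTiter-Glo viability 72 h later. Normalized to plate-median negative control; MAD z-scores, gene median, seed-adjusted.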", "values": [
      {"sequence": "GCCAGAGCUAGUUGAAUCCTT against Rce1", "z-score": "inactive: -0.0634"},
      {"sequence": "GGAAAGUUAUACUUUAGGGTT against D430004I08Rik", "z-score": "inactive: 0.483"},
      {"sequence": "CCCUUGAUUACACCACAGUTT against Cfc1", "z-score": "inactive: -1.8"},
      {"sequence": "GGCCACCAGAAUUGUUCACTT against C6.1AL", "z-score": "inactive: -0.622"},
      {"sequence": "GGGACAGGAACAAACAAGCTT against Polq", "z-score": "inactive: 1.02"},
      {"sequence": "CGACACUAGUGAUCACUCUTT against 6330530A05Rik", "z-score": "inactive: 0.295"},
      {"sequence": "CCACGUAUUGUUAGUAGAATT against Ei24", "z-score": "inactive: 0.629"},
      {"sequence": "GGAUUUGUAAGACUAAUCUTT against Xdh", "z-score": "inactive: 0.928"},
      {"sequence": "GCUAACGUACCUGUAACUUTT against Cnp1", "z-score": "inactive: 0.939"},
      {"sequence": "GGUGUGGACUAUGAUACCATT against Anxa9", "z-score": "inactive: 0.693"},
      {"sequence": "GGAUCAAAGGAAGAAGGGCTT against BC055367", "z-score": "inactive: 0.0172"},
      {"sequence": "CCACAUCUUACUACUGCAUTT against Th", "z-score": "inactive: 0.47"},
      {"sequence": "CCGAAAACUUAUCUAGAAATT against BC023105", "z-score": "inactive: -1.43"},
      {"sequence": "GCAUGAUGGGUGGCAGAAUTT against Olfr978", "z-score": "inactive: -2.04"},
      {"sequence": "GGUAUGAUGUUUGUUUUGCTT against Zfp537", "z-score": "inactive: 0.494"},
      {"sequence": "CCAUAUGGUAACCAAACCGTT against Ldb1", "z-score": "inactive: -0.337"},
      {"sequence": "GGAAAAGAGACUGAAGAAATT against Lhx3", "z-score": "inactive: -0.169"},
      {"sequence": "GGAGCCGAGUACAACAUCATT against Galgt1", "z-score": "inactive: 0.763"},
      {"sequence": "GGAAAGAGAGCUGAGCUUATT against Pla2g2a", "z-score": "inactive: -0.374"},
      {"sequence": "GGGUUUGCUCAUAAAAUAATT against 4933400A11Rik", "z-score": "inactive: -1.79"},
      {"sequence": "GCAGUAACUGUGUCAAAAUTT against Zan", "z-score": "inactive: 3.84"},
      {"sequence": "CGUGGAGCUACCAUAUAGGTT against Mobkl2b", "z-score": "inactive: 3.35"},
      {"sequence": "GCACCCUAAUGUGAUCGCATT against 2700084L06Rik", "z-score": "inactive: 0.533"},
      {"sequence": "GUGAUGGUUGAUGACCCACTT against LOC56628", "z-score": "inactive: -0.264"},
      {"sequence": "GGACCAUGAGGGAAUACAGTT against Bdkrb2", "z-score": "inactive: -2.46"},
      {"sequence": "GCUACGGCGUGGUUUAUGATT against Stk35", "z-score": "inactive: 1.76"},
      {"sequence": "CCCAAUAUGUUAGACCCUGTT against Slc16a8", "z-score": "inactive: 0.52"},
      {"sequence": "GGCAUUCAUCUAGUCCUGCTT against Bst1", "z-score": "inactive: 0.355"},
      {"sequence": "CGAUGAGCUAAGAGAGUCCTT against 2210404G23Rik", "z-score": "inactive: -0.0999"},
      {"sequence": "GGAAGAUCUCAGUGAGCAUTT against 2310032D16Rik", "z-score": "inactive: 1.26"},
      {"sequence": "GGUGUGUUUUCAUGUUUUUTT against Rel", "z-score": "inactive: 1.53"},
      {"sequence": "GGUGAAAUUUUAUGAAGAGTT against Adrbk2", "z-score": "inactive: -1.54"},
      {"sequence": "GCUGCAUGCGUAAAUAGAATT against Slc22a19", "z-score": "inactive: -1.34"},
      {"sequence": "GGACCACAAAUAGCAAAAATT against Zfp74", "z-score": "inactive: 0.614"},
      {"sequence": "GCCAGAUGAUUGUGCAUCCTT against Nfatc3", "z-score": "inactive: 0.0663"},
      {"sequence": "GGAAAUGGCAGGCAAGAUCTT against Gpr50", "z-score": "inactive: -0.268"},
      {"sequence": "GGCUUUCAAUACGUGUGUCTT against Olfr15", "z-score": "inactive: -1.02"},
      {"sequence": "GCCGGAUGAAAUAACCAAATT against 2310003C23Rik", "z-score": "inactive: -1.45"},
      {"sequence": "GGAUGAAUUCAUUGAAGAATT against Btk", "z-score": "inactive: -0.287"},
      {"sequence": "GGAGUCAUUGACCAGAUAUTT against Psmd5", "z-score": "inactive: -0.407"},
      {"sequence": "CCGAGAGUGCUGGAUGAUATT against 2600017J23Rik", "z-score": "inactive: -1.95"},
      {"sequence": "CGAUUUUCUAACCUCGAGUTT against Dlx2", "z-score": "inactive: -0.0245"},
      {"sequence": "GGAUGAUAUAGUAUCUACGTT against 2610022G08Rik", "z-score": "inactive: 0.628"},
      {"sequence": "GGCUGGUGGAUAAUGAUUGTT against B230114J08Rik", "z-score": "inactive: -1.24"},
      {"sequence": "CCAUCAGGGUUACAAGUACTT against 6030458C11Rik", "z-score": "inactive: -2.16"},
      {"sequence": "GCAGAGACUACUUAGCAAGTT against 2310004I24Rik", "z-score": "inactive: 2.27"},
      {"sequence": "GGAUGAACGAGCUAUCGAGTT against Pdcl3", "z-score": "inactive: 0.806"},
      {"sequence": "GGGUCCUAUUUAUUUAUGUTT against Cxcl1", "z-score": "inactive: 0.472"},
      {"sequence": "GCAAGCUGUUUGUUCCAAUTT against Gtf3c4", "z-score": "inactive: -1.49"},
      {"sequence": "GCAGUAUAAGAAUUUCAUGTT against A930021O22", "z-score": "inactive: -0.351"},
      {"sequence": "GGCAAUGCUAAAUAUUUGCTT against Ndor1", "z-score": "inactive: 1.31"},
      {"sequence": "GGAAUUGAUUCUCUUCUCATT against Top2b", "z-score": "inactive: -0.598"},
      {"sequence": "CGUAACCAAACCCUGGUUCTT against Ccnl1", "z-score": "inactive: -0.415"},
      {"sequence": "GGCGAUUGAGUUUGUUUUGTT against Rabggtb", "z-score": "inactive: 0.14"},
      {"sequence": "GGUCUUCAGUCCUGUACCATT against LOC278676", "z-score": "inactive: -1.08"},
      {"sequence": "GGAGAUGAAGACAUGGGACTT against Sly", "z-score": "inactive: -0.774"},
      {"sequence": "GCCUGAGAAACAUUCGGCATT against H2-T24", "z-score": "inactive: -0.178"},
      {"sequence": "GGAAGAGGCGCACAUAACGTT against 5830436D01Rik", "z-score": "inactive: 0.479"},
      {"sequence": "GGAUUUGGUGAUCCACUGGTT against AV273951", "z-score": "inactive: -2.09"},
      {"sequence": "GGGAAAAGCACAGAGCUGATT against Tk1", "z-score": "inactive: 0.173"},
      {"sequence": "GGCUGUUUUACAUCAUCCCTT against Ust", "z-score": "inactive: 1.9"},
      {"sequence": "GUGUACGUCUGUUAACACATT against Dad1", "z-score": "inactive: -0.395"},
      {"sequence": "GGCUUUCUUUUGGAAGCUCTT against Sdfr2", "z-score": "inactive: 0.162"},
      {"sequence": "GGACUGGUCCGAGGUAACUTT against 2700087I09Rik", "z-score": "inactive: -2.75"},
      {"sequence": "GCUGGUGAAUGCGACCUUUTT against Tm4sf5", "z-score": "inactive: -1.16"},
      {"sequence": "GCCUAAAGCUUUUCUACAATT against Mlph", "z-score": "inactive: -1.57"}
    ]}
  ]
}
